Counter-ions that a name gives are not always drawn. ± gives the standard deviation of the averaged measurements. The lowest values were mostly taken out for another list; the other results follow.

For the first assay, the system named is E. coli TESEC Mtb DapB. The assay is described as follows: growth (OD600 after 10 h); higher = more growth (less inhibition). The settings on record: arabinose induction (level): High; compound 0.1 mM; raw OD600 reference: median of DMSO wells […], cell-free background 0.041. Here is the method:
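TESEC E. coli strains in which the native enzyme is deleted and replaced by arabinose-inducible Mtb Asd, DapB, CysH or TrpD, each grown in its selective medium. Strains were screened against the Prestwick library at 0.1 mM and 1% DMSO in 384-well format at low and high arabinose induction. Growth is read as OD600 after 10 h in triplicate.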
Compound `CN1[C@@H]2CC[C@H]1C[C@@H](OC(=O)C(O)c1ccccc1)C2` (mixture of isomers) [Homatropine hydrobromide (R,S)] showed a growth of 0.216 ± 0.012.

Staying with this assay, now noted: arabinose induction (level): Low; compound 0.1 mM; raw OD600 reference: median of DMSO wells 0.227, cell-free background 0.041.
Compound `CN1[C@@H]2CC[C@H]1C[C@@H](OC(=O)C(O)c1ccccc1)C2` (mixture of isomers) [Homatropine hydrobromide (R,S)] registered a growth of 0.266 ± 0.047.

The values are drawn from the supplement of paper PMC9262897, “Low-cost anti-mycobacterial drug discovery using engineered E. coli” (Nature Communications, 2022).
